{
  "source": "patent US11071743B1",
  "about": "“Effective, non-toxic treatments for brain cancer” (priority 2015, dated 2021)",
  "origin": "cited, not measured here",
  "test_system": "glioblastoma",
  "conditions": "one human trial; cited from earlier work",
  "note": "At least one structure is not confirmed: it was looked up by name or label, or the drawing left a doubt.",
  "data": [
    {"smiles": "O=C(O)C(Cl)Cl", "note": "[DCA, dichloroacetate]", "values": [
      {"measurement": "results in human trial", "result": "good results"}
    ]}
  ]
}
